These are yes or no findings as the source states them, for the method shown. Binding seen in cells or lysates may run through a third protein. Some results given as binding are weak or reduced against the parent protein; the word gives no strength.

Sequences of proteins named here, by UniProt entry; tags and fusion partners are left off.
UniProt P61586: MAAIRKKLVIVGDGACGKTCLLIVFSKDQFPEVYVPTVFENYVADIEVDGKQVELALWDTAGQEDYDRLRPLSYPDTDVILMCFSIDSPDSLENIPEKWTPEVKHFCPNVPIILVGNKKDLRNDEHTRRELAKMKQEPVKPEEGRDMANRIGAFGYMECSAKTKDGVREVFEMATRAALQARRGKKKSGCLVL
UniProt Q9Y4D1: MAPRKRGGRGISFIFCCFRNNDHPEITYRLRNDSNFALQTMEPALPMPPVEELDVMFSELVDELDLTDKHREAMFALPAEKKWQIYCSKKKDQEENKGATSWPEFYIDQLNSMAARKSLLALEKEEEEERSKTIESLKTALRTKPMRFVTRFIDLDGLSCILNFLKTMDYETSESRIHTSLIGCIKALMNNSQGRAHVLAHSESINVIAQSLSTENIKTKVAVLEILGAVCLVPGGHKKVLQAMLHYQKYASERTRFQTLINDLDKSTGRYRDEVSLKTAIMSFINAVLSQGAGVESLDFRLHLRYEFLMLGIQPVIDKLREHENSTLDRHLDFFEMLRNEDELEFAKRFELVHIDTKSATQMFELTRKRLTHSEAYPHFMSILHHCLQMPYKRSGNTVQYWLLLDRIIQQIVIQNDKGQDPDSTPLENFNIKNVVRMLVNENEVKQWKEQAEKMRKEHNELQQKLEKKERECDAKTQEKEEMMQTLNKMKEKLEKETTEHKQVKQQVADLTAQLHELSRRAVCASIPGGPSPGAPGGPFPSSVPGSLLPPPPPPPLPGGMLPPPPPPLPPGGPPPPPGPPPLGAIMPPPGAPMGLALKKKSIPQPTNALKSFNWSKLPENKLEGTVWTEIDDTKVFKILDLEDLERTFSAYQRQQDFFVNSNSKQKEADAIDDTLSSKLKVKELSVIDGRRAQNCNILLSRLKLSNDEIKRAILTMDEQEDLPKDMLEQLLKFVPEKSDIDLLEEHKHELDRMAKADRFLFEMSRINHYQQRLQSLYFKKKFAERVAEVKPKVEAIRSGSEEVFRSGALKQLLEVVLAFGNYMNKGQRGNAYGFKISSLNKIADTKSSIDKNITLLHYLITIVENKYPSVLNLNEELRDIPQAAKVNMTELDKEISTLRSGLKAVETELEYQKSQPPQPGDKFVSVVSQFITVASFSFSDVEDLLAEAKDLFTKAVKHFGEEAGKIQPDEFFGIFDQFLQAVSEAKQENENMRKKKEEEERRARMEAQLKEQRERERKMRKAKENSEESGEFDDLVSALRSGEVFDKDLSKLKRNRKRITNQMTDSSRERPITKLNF

In the experiment the target is GST-RhoA (UniProt P61586). As to the kind of experiment: pull-down; GST-RhoA beads as bait; lysates of tumor tissues or of transfected COS-7 cells; bound (active) DAAM1 immunoblotted with anti-DAAM1 antibody; only the target purified.

In the case of “Dishevelled-associated activator of morphogenesis 1 (DAAM1) (from UniProt Q9Y4D1 1-1078)”, the binding result is recorded as “binds”.

(Values after article PMC6417246.)
